Source: US20090203877A1, “X-RAY-DENSE CONJUGATE” (Eberhard-Karls-Universitaet Tuebingen Universitaetsklinkum, priority 2006, published 2009)
“Also recorded” adds a separate entry of the source. Not every detail of the peptide structures is certain; ends, links or a residue may be inferred.

Tests used:
[1] = tested on: human malignant LN18 glioma cells; assay: Cell viability / cell death (annexin-V-Alexa 568 binding, propidium iodide, FACS scatter morphology); assay type: cell-based; details: conjugate 12, FIG. 11
Method: All measurements were performed on living, non-fixed cells. […] All measurements were performed on living cells. […] All measurements were performed on living cells in triplicates. […] All measurements were performed on living cells.

[2] = tested on: human malignant U373 glioma cells; assay: Computer tomography, signal density of cell pellets; assay type: cell-based; details: 20 min
Method: For CT and FACS human U373 glioma cells were grown under the same conditions in 75 cm^2 culture flasks (Corning Costar, Bodenheim, Germany) (70% confluency). Accutase™ (PAA laboratories, Pasching, Austria) was added to achieve detachment of the cells which were harvested and subsequently aliquoted into Eppendorf tubes (6×10^6 cells per tube). As in the investigations performed by fluorescence microscopy, the cells in the first tube served as a control (PBS only). The cells in the other tubes were incubated with 260 μM Ultravist, 260 μM TIBA in PBS and 26 μM, 260 μM and 2.6 mM conjugates 1-4 in PBS. After a 20 minute incubation period at 37° C. in an atmosphere of 5% CO2, the cells were washed three times in PBS and centrifuged at 800 rpm for 5 minutes.
The inner ear spiral CT protocol consisted of: tube voltage 120 KV, effective mAs 550, time of imaging TI: 1.5, SL 0.75/0.75/4.5, FOV: 50 0/52, kernel: U70, window: intervertebral disc.
3D-images were obtained using InSpace Software (Syngo CT 2006G) (Siemens AG, Erlangen, Germany).
After an incubation of 20 minutes at 37° C./5% CO2 the cells were washed three times with PBS buffer and centrifuged at 800 rpm (rounds per minute) for 5 minutes. The fluorescence was measured in Becton Dickinson FACSCalibur as described under 1.4. The computer tomography was performed as described under 1.5.1. The examinations were repeated two times. […]

[3] = tested on: human malignant U373 glioma cells; assay: Cell viability / cell death (MTT test, propidium iodide, annexin-V-Alexa 568 binding, FACS scatter morphology)
Method: Human malignant U373-glioma cells were grown to 70% confluency in RPMI-1640 Ready Mix Medium containing L-Glutamine and 10% FBS-Gold (PAA laboratories, Pasching, Austria) at 37° C., 5% CO2 (vol/vol), in 4-well-plates (NUNC, Wiesbaden, Germany) with about 300,000 cells pro well. […] After this, the cells were washed three times with buffer and then incubated with Ready Mix Medium again. Cell viability was then assessed by the addition of methyl-thiazoyl-tetrazolium (MTT) salt (Sigma-Aldrich, Germany) at a concentration of 15 mg/ml. After 20 minutes, the production of formazan was investigated. When blue formazan granules were detected, propidium iodine (PI) was added to the medium (1 μM PI; Molecular Probes, Eugene, Oreg., USA) to detect cells with damaged cell membranes. […] Pictures were taken with a 3-CCD color video camera (MC3254P, Sony, Japan) and the Axiovision Software (Carl Zeiss, Jena, Germany). The intensity of cell fluorescence was recorded at the exposure time necessary for the production of the fluorescence images.
After imaging, Accutase™ (PAA laboratories, Pasching, Austria) was added to the wells to achieve detachment of the cells for further FACS analysis. Fluorescence was measured in a Becton Dickinson FACSCalibur. A total of 20,000 events per sample were analyzed. The investigations were performed in triplicate. […]

CC(C)[C@H](NC(=O)[C@H](CCCCN)NC(=O)[C@H](CCCNC(=N)N)NC(=O)[C@H](CCCCN)NC(=O)[C@H](CCCCN)NC(=O)[C@H](CCCCN)NC(=O)[C@@H]1CCCN1C(=O)c1cc(I)cc(I)c1I)C(=O)N[C@@H](CCCCNC(=S)Nc1ccc2c(c1)C(=O)OC21c2ccc(O)cc2Oc2cc(O)ccc21)C(=O)NCC(=O)NCC(=O)N[C@@H](CCCCN)C(N)=O [conjugate 12, P(TIBA)KKKRKVK(FITC)GGK]
cell populations in FACS analysis [1]: two morphologically different, viable and non-viable cell populations | CT signal density of cell pellets ([2]; 260 μM): low signal density | CT signal density of cell pellets ([2]; 2.6 mM): can be delimited in the tubes due to the higher signal density; also recorded: clear increase of the signal density | cell death (annexin-V-Alexa 568 staining) ([3]; conjugate 12, FIG. 10): induced the cell death | cell populations in FACS analysis ([3]; conjugate 12, FIG. 11): two morphologically different, viable and non-viable cell populations
